This is an account of results in patent US20240199455A1, “REMOVAL OF TOXIC OXYANIONS BY CO-CRYSTALLIZATION WITH SULFATE” (UT-Battelle, LLC, priority 2022, published 2024).

A short description of the series: Recovery of BIG free base from crystalline BIG-oxyanion solid by NaOH. The conditions noted are these: relative to the initial BIG-oxyanion precipitate; NaOH neutralization.

Turning to `N=C(N)NN=Cc1cccc(C=NNC(=N)N)n1` [PyBIG free base], the “BIG free base recovered” value worked out at 23.2±4.0%. The value for `N=C(N)NN=Cc1ccc(C=NNC(=N)N)cc1` [BBIG free base] was 84.1±1.9%.
